Experimental data reported in US6414031B1, “Bisoximether derivatives, methods and intermediate products for the production thereof, and their use for combating fungicidal pests and animal pests” (BASF Aktiengesellschaft, priority 1998, dated 2002).
Some of these results come from one statement about several compounds together.

Columns and labels:
Tetranychus telarius = assay: Action against Tetranychus telarius (red spider mite); assay type: in vivo, Tetranychus telarius (syn. urticae); details: sprayed infested dwarf beans, infestation level after 5 days
Prodenia litura = assay: Action against Prodenia litura, contact and stomach action; assay type: in vivo; details: treated filter disks and maize leaf sections, caterpillars, mortality after 24 hours
Puccinia recondita = assay: Curative activity against Puccinia recondita on wheat (leaf rust); assay type: in vivo; details: 1 ppm, wheat sprayed 1 day after infection, assessed after 7 days, untreated 90%
Description: (§1) The active ingredients, separately or together, were formulated as a 10% emulsion in a mixture of 70% by weight of […], 20% by weight of Nekanil® LN (Lutensol® AP6, wetter having emulsifying and dispersant action, based on ethoxylated alkylphenols) and 10% by weight of Wettol® EM (non-ionic emulsifier based on ethoxylated castor oil) and diluted with water to give the desired concentration.
Leaves of wheat seedling cv. “Kanzler” grown in pots were dusted with leaf rust spores (Puccinia recondita). The pots were then placed for 24 hours into a chamber with high atmospheric humidity (90 to 95%) and 20 to 22° C. During this time, the spores germinated and the germ tubes penetrated the leaf tissue. Next day, the infected plants were sprayed to runoff with an aqueous active ingredient preparation made with a stock solution consisting of 10% of active ingredient, 63% of cyclohexanone and 27% of emulsifier. After the spray coating had dried on, the test plants were grown in the greenhouse for 7 days at temperatures between 20 and 22° C. and a relative atmospheric humidity of 65 to 70%. The extent of rust development on the leaves was then determined.

Plasmopara viticola = assay: Activity against Plasmopara viticola on grape leaves (long-term action); assay type: in vivo; details: 16 ppm, grape leaves inoculated 7 days after spraying; untreated 85%
Description: as §1
Leaves of grapes cv. “Müller-Thurgaul” in pots were sprayed to runoff with aqueous active ingredient preparations made with a stock solution of 10% active ingredient, 63% cyclohexanone and 27% of emulsifier. In order to be able to assess the long-term action of the substances, the spray coating was allowed to dry off and the plants were then placed in the greenhouse for 7 days. Only then were the leaves inoculated with an aqueous zoospore suspension of Plasmopara viticola. Then, the vines were first placed for 48 hours into a water-vapor-saturated chamber at 24° C. and then for 5 days in the greenhouse at temperatures between 20 and 30° C. After this time, the plants were returned to a humid chamber for 16 hours to accelerate sporangiophore eruption for 16 hours. The extent of the disease development on the undersides of the leaves was then determined visually.

Row | Compound | limit concentration (lowest concentration with 80 to 100% inhibition or mortality) (Tetranychus telarius) | limit concentration (lowest concentration with 80 to 100% inhibition or mortality) (Prodenia litura) | disease level (extent of rust development on the leaves) (Puccinia recondita) | disease level (undersides of the leaves) (Plasmopara viticola)
1 | COC=C(C(=O)OC)c1ccccc1CON=C(C)C(=NOC)C1CCCCC1 [A] | ≥ 100 ppm | over 0.2 ppm | – | –
2 | CC=C(C(=O)OC)c1ccccc1CON=C(C)C(=NOC)C1CCCCC1 [B] | ≥ 100 ppm | over 0.2 ppm | – | –
3 | CON=C(C(=O)OC)c1ccccc1CON=C(C)C(=NOC)C1CCCCC1 [C] | ≥ 100 ppm | over 0.2 ppm | – | –
4 | COC=C(C(=O)OC)c1ccccc1CON=C(C)C(=NOC)C1CCC(C)CC1 (stereo not drawn) [Compound I-3] | – | – | ≤ 5% | –
5 | CNC(=O)C(=NOC)c1ccccc1CON=C(C)C(=NOC)C1CCC(OC)CC1 (stereo not drawn) [Compound I-10] | – | – | ≤ 5% | ≤ 3%
